# PubChem BioAssay AID1259254, NCATS – 2017
# Purpose: 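Finding genes that stop cells copying their DNA twice in one cycle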 (primary screen)
# Cell system: human HCT116 colorectal cancer cells
# Reagent: single siRNA against human genes
# Time to read-out: 3 days
# Detection: 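Nuclei stained with Hoechst and imaged; cell-cycle phase assigned by DNA content; G2 share scaled per plate, non-targeting siRNA 0%, GMNN siRNA 100%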
# Scale: G2 robust z-score and G2 cells, % of GMNN control: higher = more G2 cells, more excess DNA replication; raw share of cells in G2: higher = larger share of cells with G2 DNA content
# Rule for the call: 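Active siRNAs have a G2 robust z of 5 or more median absolute deviations over the median, which in these data means about 38% or higher of GMNN control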
# In all, the deposit lists about 59,000 reagents; below is an unselected part. About 1,550 of all reagents (2.6%) were called active. 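G2 share is only a proxy for re-replication; each gene was hit by three separate siRNAs, and active genes were retested.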 Raw values are not corrected between plates. A number with no mark means an inactive call. The numbers tell different reagents against one gene apart. The record does not give: the amount of reagent.
target,reagent,G2 robust z-score,"G2 cells, % of GMNN control",raw share of cells in G2 (%)
STARD3,1,1.76,15.3,12.4
STARD3,2,3.66,28.7,13.1
STARD3,3,0.428,5.98,8.83
LARP1,1,3.55,27.9,17.6
LARP1,2,-0.467,-0.319,4.05
LARP1,3,0.048,3.31,5
LOC401052 (retired record),1,-0.709,-2.02,3.07
LOC401052 (retired record),2,-1.14,-5.05,1.51
LOC401052 (retired record),3,-0.773,-2.47,3.77
ABCA9,1,-1.33,-6.42,2.9
ABCA9,2,-0.776,-2.49,3.04
ABCA9,3,-0.129,2.06,7.29
ZNF420,1,-0.0159,2.86,4.07
ZNF420,2,4.19,32.4,14.4
ZNF420,3,-0.964,-3.81,2.19
CAMK2G,1,-1.02,-4.2,2.55
CAMK2G,2,8.53 (active),63,26.4
CAMK2G,3,-0.796,-2.63,4.52
C17orf67,1,-0.791,-2.59,3.1
C17orf67,2,0.588,7.1,6.37
C17orf67,3,-0.637,-1.52,3.58
GRAMD2A,1,-0.199,1.57,4.17
GRAMD2A,2,1,10,6.32
GRAMD2A,3,0.786,8.49,5.45
STAC3,1,2.58,21.1,11.2
STAC3,2,-0.771,-2.45,2.29
STAC3,3,0.632,7.42,5.56
GLIS3,1,3.54,27.9,12.7
GLIS3,2,0.0291,3.17,4.27
GLIS3,3,-0.645,-1.57,2.97
AMPD3,1,5.51 (active),41.8,18.9
AMPD3,2,-0.353,0.485,5.25
AMPD3,3,-0.515,-0.655,3.75
PHF20L1,1,3.39,26.8,12.2
PHF20L1,2,-1.53,-7.79,2.39
PHF20L1,3,-0.349,0.515,3.79
RPF2P1,1,4.64,35.6,18.1
RPF2P1,2,1.64,14.5,8.11
RPF2P1,3,0.924,9.47,6.63
ESRP1,1,-0.642,-1.55,3.05
ESRP1,2,-0.995,-4.03,2.57
ESRP1,3,3.01,24.1,11.2
ATP5F1A,1,1.2,11.4,8.23
ATP5F1A,2,-1.46,-7.3,2.23
ATP5F1A,3,-0.718,-2.09,4.33
SLC44A3,1,-0.0179,2.84,5.25
SLC44A3,2,0.847,8.92,5.93
SLC44A3,3,-0.537,-0.808,2.29
ATP11C,1,-0.796,-2.64,3.32
ATP11C,2,-1.19,-5.38,3.58
ATP11C,3,1.29,12,9.65
MAN2A2,1,-0.875,-3.19,4.21
MAN2A2,2,1.56,13.9,7.8
MAN2A2,3,-0.38,0.291,5.47
TYRO3,1,-0.734,-2.2,4.88
TYRO3,2,2.06,17.5,11.3
TYRO3,3,-0.482,-0.426,3.87
PGGHG,1,-0.439,-0.123,4.74
PGGHG,2,4.12,31.9,18.7
PGGHG,3,9.7 (active),71.2,30
JAM3,1,0.177,4.21,5.51
JAM3,2,4.8,36.7,14.3
JAM3,3,-0.461,-0.273,2.32
GCFC2,1,1.54,13.8,11.2
GCFC2,2,-0.653,-1.63,3.25
GCFC2,3,-0.478,-0.393,3.21
IFNB1,1,-0.759,-2.37,4.18
IFNB1,2,4.71,36.1,19.4
IFNB1,3,0.0584,3.38,5.44
ZNF214,1,-1.2,-5.48,1.7
ZNF214,2,0.606,7.23,9.21
ZNF214,3,0.965,9.76,7.43
WTAP,1,1.79,15.6,12.4
WTAP,2,0.58,7.05,6.89
WTAP,3,5.97 (active),45,19.8
PBOV1,1,-0.00435,2.94,3.47
PBOV1,2,1.94,16.6,11.8
PBOV1,3,0.455,6.17,7.37
INPP5B,1,-0.601,-1.26,4.39
INPP5B,2,-0.633,-1.49,3.86
INPP5B,3,-0.169,1.78,4.03
CENPB,1,1.12,10.8,7.83
CENPB,2,4.81,36.8,18.1
CENPB,3,0.566,6.95,7.53
ICA1,1,-0.616,-1.37,2.99
ICA1,2,0.377,5.62,7.94
ICA1,3,0.347,5.41,6.07

Part of the list above, reformatted.
INPP5B #1
- G2 robust z-score: -0.601
- G2 cells, % of GMNN control: -1.26
- raw share of cells in G2 (%): 4.39

INPP5B #2
- G2 robust z-score: -0.633
- G2 cells, % of GMNN control: -1.49
- raw share of cells in G2 (%): 3.86

INPP5B #3
- G2 robust z-score: -0.169
- G2 cells, % of GMNN control: 1.78
- raw share of cells in G2 (%): 4.03

CENPB #1
- G2 robust z-score: 1.12
- G2 cells, % of GMNN control: 10.8
- raw share of cells in G2 (%): 7.83

CENPB #2
- G2 robust z-score: 4.81
- G2 cells, % of GMNN control: 36.8
- raw share of cells in G2 (%): 18.1

CENPB #3
- G2 robust z-score: 0.566
- G2 cells, % of GMNN control: 6.95
- raw share of cells in G2 (%): 7.53

ICA1 #1
- G2 robust z-score: -0.616
- G2 cells, % of GMNN control: -1.37
- raw share of cells in G2 (%): 2.99

ICA1 #2
- G2 robust z-score: 0.377
- G2 cells, % of GMNN control: 5.62
- raw share of cells in G2 (%): 7.94
